Results taken from paper PMC9587031, “Antibiotic polymyxin arranges lipopolysaccharide into crystalline structures to solidify the bacterial membrane” (Nature Communications, 2022).
Some compounds share one wording; it may come from a single statement.

Legend:
[1] = tested on: OM patches from E. coli MG1655 WT strain; assay: AFM imaging of crystalline structure formation on OM patches; design: species or system Escherichia coli
Experimental: E. coli MG1655 strains were transformed with the pY200 plasmid that carries an mCherry gene preceded by the periplasmic export signal of the skp protein under control of the lux promoter. This construct enables over-expression of mCherry into the periplasmic space, which in turn increases the OMV production. Cultures were grown in LB medium (Difco) with 50 µg/ml spectinomycin (Fischer Scientific) at 37 °C. Expression of mCherry was induced at an OD600 ≈ 0.4 by N-(β ketocaproyl)-L-homoserine lactone (HSL, Cayman Chemical). After induction, the cultures were grown until they reached the early stationary phase, and bacteria were removed by centrifugation at 10,000 g for 10 min. The supernatant was filtered through a 0.45 µm filter unit (Merck Millipore) for the removal of residual bacteria. The OMVs were collected from the filtered supernatant by centrifugation at 38,400 g for 1.5 h. The pellet was resuspended in 12 ml Dulbecco’s phosphate-buffered saline buffer supplemented with magnesium and calcium (Sigma-Aldrich), and collected by two rounds of ultracentrifugation at 100,000 g for 1 h each. In the last step, the OMVs were resuspended in 1 ml DPBS buffer, aliquoted, and stored at –80 °C.
OMVs produced from different E. coli MG1655 strains were adsorbed onto freshly cleaved mica for 15 min in DPBS buffer at room temperature. After adsorption, the sample was gently washed with fresh DPBS buffer for five times to remove non-adsorbed OMVs. Then OMVs were imaged using force-distance curve-based AFM (FD-based AFM) performed with an AFM (Nanoscope Multimode 8, Bruker) operated in PeakForce Tapping mode in buffer solution (DPBS) at room temperature. The AFM was equipped with a 120 μm piezoelectric J scanner and fluid cell. The images were recorded using two different AFM cantilevers: PEAKFORCE‐HiRs‐F‐A (Bruker) with a nominal spring constant of 0.4 N/m, a resonance frequency of ≈ 165 kHz in liquid, and a sharpened silicon tip with a nominal radius of ≈ 1 nm or SCANASYST-FLUID + (Bruker) with a nominal spring constant of 0.7 N/m, a resonance frequency of ≈ 150 kHz in liquid, and a sharpened silicon tip with a nominal radius of ≈ 2 nm. Before imaging, cantilevers were calibrated by ramping on the mica surface and the thermal tuning method. Images were recorded at 2 kHz oscillation frequency, by applying an imaging force of 100–120 pN with a vertical amplitude of 30 nm. The AFM was placed inside a home‐built acoustic isolated and temperature‐controlled box. Raw AFM images were processed using the AFM analysis software Nanoscope v.1.8 for levelling and flattening.
AFM images were transformed with an automated image analysis script that identifies and characterizes local features by their Fourier transformation (FT)[60]. The analysis applies a moving local window (32×32 pixels, step size:16 pixels) on AFM images, and for each local window, a 2D power spectrum FT is computed, followed by machine learning processing. First, the number of components/fractions in the data is determined by computing the principal component analysis scree plot. Secondly, the data is blindly decomposed into different interpretable components by non-negative matrix factorization. The analysis script is publicly available as a Python analysis notebook and program for batch processing at (10.17632/25x46xjyr5.2).
Processed AFM images were analyzed using ilastik software (version 1.4.0b13) for automated (supervised) pixel classification with trained classifiers. Classifier files are available upon request. Through classification, the probability maps of AFM images were generated and exported as.tif files. The probability maps were opened in Fiji (ImageJ2 v.2.3.0) to perform particle analysis on threshold-selected features. The distance comparison histograms were generated from particle analysis data using Python’s data visualization library seaborn (v.0.11.2).

[2] = tested on: OM patches from E. coli MG1655 WT strain; assay: FD-based AFM elastic modulus and deformation of OM patches; design: species or system Escherichia coli; details: for Deformation mean / Elastic modulus mean: polymyxin E titration
[3] = tested on: E. coli K-12 MG1655 MCR-1 bacteria; assay: In-cell solid-state 31P-NMR T1ρ relaxation; type: cell-based, Escherichia coli; details: 31P ssNMR, intact cells, n = 1; untreated 3.6, 8.2, 8.9
[4] = OM patches MG1655, 1 mg/l polymyxin E

Polymyxin E was tested, and the “protrusion of crystalline structures from the membrane surface” value [1, 4] was 1–1.2 nm, the “unit cell length of crystalline structures” value [1, 4] was “≈ 10 nm” and the “lattice constant aWT” value ([1]; OM patches MG1655 WT after polymyxin E, mean ± SD, n = 244 structures) was 9.8 ± 3.9 nm. For the same substance, the “formation of crystalline structures” value ([1]; OM patches MG1655 WT incubated with 50 mg/l of the polymyxin variant (Fig. 3), repeated at least three times) was “Crystalline structures are formed”, the “decrease of deformation of OM patches by the crystalline structures” value ([2]; increasing concentrations of polymyxin E) was “≈ 20%” and the Deformation mean ([2]; 0.3 mg/l (0 mg/l: 2.125)) was 1.631 nm. It also gave an Elastic modulus mean ([2]; 0.3 mg/l (0 mg/l: 11.639)) of 12.732 MPa, a Deformation mean ([2]; 0.6 mg/l) of 1.517 nm and an Elastic modulus mean ([2]; 0.6 mg/l) of 15.616 MPa. For the same substance, the Deformation mean ([2]; 6 mg/l) was 1.465 nm, the Elastic modulus mean ([2]; 6 mg/l) was 16.701 MPa and the Deformation mean ([2]; 60 mg/l) was 1.368 nm. For the same substance, the Elastic modulus mean ([2]; 60 mg/l) was 20.963 MPa and the “T1ρ, isotropic phosphates, MCR1 + colistin” value [3] was 8.7 ms.
